# Test results as given in the supplement of paper PMC8728848.
# The other results are listed elsewhere or left out.
# B1: Pwp7 (Candida glabrata) (protein)
# chain: MGSSHHHHHHSSGLVPRGSHMASKNPVDFPNLCQYPNLDGAVAGFDTEIYNADPSILINFSLWPILQFPKEWHKTIGRAITTQTNFKLPASDTTLFGVSIPTQNILIEFRGYFIPPKSGTYTFALYLTDDGSAMFLGNDAAFPCGNITSWSNPTNDQVSVSDYDPKKKTLTVYMVAGVAYPLRIAYYNREKGGSLTASFVDPDGLTHSDWNGYIWTLPSCDNCKYS
# Tests used:
# Experiment in all cases: glycan array binding signal (z-score within array); higher = stronger binding
# Conditions in all cases: glycan notation: IUPAC condensed, linker removed
# Gal(a1-3)Gal(b1-3)GlcNAc = molecular target: Gal(a1-3)Gal(b1-3)GlcNAc
# Outline: (§1)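 The binding signal is a Z-score computed within each array and averaged over linkers. Arrays of the same protein sequence at different concentrations or buffers were also averaged together. Data originate from 3228 arrays in the Consortium for Functional Glycomics database, kept only where the protein sequence was available.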
# [1] = molecular target: Gal(a1-3)Gal(b1-3)GlcNAc(b1-2)Man
# Outline: as §1
# [2] = molecular target: Gal(a1-3)Gal(b1-3)GlcNAc(b1-2)Man(a1-3)[Gal(a1-3)Gal(b1-3)GlcNAc(b1-2)Man(a1-6)]Man(b1-4)GlcNAc(b1-4)GlcNAc
# Outline: as §1
# [3] = molecular target: Gal(a1-3)Gal(b1-3)GlcNAc(b1-3)GalNAc
# Outline: as §1
# [4] = molecular target: Gal(a1-3)Gal(b1-3)GlcNAc(b1-6)GalNAc
# Outline: as §1
# [5] = molecular target: Gal(a1-3)Gal(b1-3)[Fuc(a1-4)]GlcNAc(b1-2)Man(a1-3)[Gal(a1-3)Gal(b1-3)[Fuc(a1-4)]GlcNAc(b1-2)Man(a1-6)]Man(b1-4)GlcNAc(b1-4)GlcNAc
# Outline: as §1
# Gal(a1-3)Gal(b1-4)Glc = molecular target: Gal(a1-3)Gal(b1-4)Glc
# Outline: as §1
# Gal(a1-3)Gal(b1-4)GlcNAc = molecular target: Gal(a1-3)Gal(b1-4)GlcNAc
# Outline: as §1
# [6] = molecular target: Gal(a1-3)Gal(b1-4)GlcNAc(b1-2)Man
# Outline: as §1
# [7] = molecular target: Gal(a1-3)Gal(b1-4)GlcNAc(b1-2)Man(a1-3)[Gal(a1-3)Gal(b1-4)GlcNAc(b1-2)Man(a1-6)]Man(b1-4)GlcNAc(b1-4)GlcNAc
# Outline: as §1
# [8] = molecular target: Gal(a1-3)Gal(b1-4)GlcNAc(b1-3)GalNAc
# Outline: as §1
# [9] = molecular target: Gal(a1-3)Gal(b1-4)GlcNAc(b1-6)GalNAc
# Outline: as §1
# [10] = molecular target: Gal(a1-3)Gal(b1-4)[Fuc(a1-3)]GlcNAc
# Outline: as §1
# [11] = molecular target: Gal(a1-3)Gal(b1-4)[Fuc(a1-3)]GlcNAc(b1-2)Man(a1-3)[Gal(a1-3)Gal(b1-4)[Fuc(a1-3)]GlcNAc(b1-2)Man(a1-6)]Man(b1-4)GlcNAc(b1-4)GlcNAc
# Outline: as §1
# Gal(a1-3)GalNAc = molecular target: Gal(a1-3)GalNAc
# Outline: as §1
# [12] = molecular target: Gal(a1-3)[Gal(a1-4)]Gal(b1-4)GlcNAc
# Outline: as §1
# [13] = molecular target: Gal(a1-4)Gal(b1-3)GlcNAc(b1-2)Man(a1-3)[Gal(a1-4)Gal(b1-3)GlcNAc(b1-2)Man(a1-6)]Man(b1-4)GlcNAc(b1-4)GlcNAc
# Outline: as §1
# Gal(a1-4)Gal(b1-4)Glc = molecular target: Gal(a1-4)Gal(b1-4)Glc
# Outline: as §1
# Gal(a1-4)Gal(b1-4)GlcNAc = molecular target: Gal(a1-4)Gal(b1-4)GlcNAc
# Outline: as §1
# [14] = molecular target: Gal(a1-4)Gal(b1-4)GlcNAc(b1-2)Man(a1-3)[Gal(a1-4)Gal(b1-4)GlcNAc(b1-2)Man(a1-6)]Man(b1-4)GlcNAc(b1-4)GlcNAc
# Outline: as §1
# [15] = molecular target: Gal(a1-4)Gal(b1-4)GlcNAc(b1-3)Gal(b1-4)Glc
# Outline: as §1
# Gal(a1-4)GlcNAc = molecular target: Gal(a1-4)GlcNAc
# Outline: as §1
# Gal(a1-6)Glc = molecular target: Gal(a1-6)Glc
# Outline: as §1
# Gal(b1-2)Gal = molecular target: Gal(b1-2)Gal
# Outline: as §1
# Gal(b1-3)Gal = molecular target: Gal(b1-3)Gal
# Outline: as §1
# Gal(b1-3)Gal(b1-4)GlcNAc = molecular target: Gal(b1-3)Gal(b1-4)GlcNAc
# Outline: as §1
# Gal(b1-3)GalNAc = molecular target: Gal(b1-3)GalNAc
# Outline: as §1
# [16] = molecular target: Gal(b1-3)GalNAc(a1-3)[Fuc(a1-2)]Gal(b1-4)Glc
# Outline: as §1
# [17] = molecular target: Gal(b1-3)GalNAc(a1-3)[Fuc(a1-2)]Gal(b1-4)GlcNAc
# Outline: as §1
# Gal(b1-3)GalNAc(b1-3)Gal = molecular target: Gal(b1-3)GalNAc(b1-3)Gal
# Outline: as §1
# [18] = molecular target: Gal(b1-3)GalNAc(b1-3)Gal(a1-4)Gal(b1-4)Glc
# Outline: as §1
# [19] = molecular target: Gal(b1-3)GalNAc(b1-4)Gal(b1-4)Glc
# Outline: as §1
# [20] = molecular target: Gal(b1-3)GalNAc(b1-4)[Neu5Ac(a2-3)]Gal(b1-4)Glc
# Outline: as §1
# Gal(b1-3)GlcNAc = molecular target: Gal(b1-3)GlcNAc
# Outline: as §1
# [21] = molecular target: Gal(b1-3)GlcNAc(a1-3)Gal(b1-4)GlcNAc
# Outline: as §1
# [22] = molecular target: Gal(b1-3)GlcNAc(a1-6)Gal(b1-4)GlcNAc
# Outline: as §1
# Gal(b1-3)GlcNAc(b1-2)Man = molecular target: Gal(b1-3)GlcNAc(b1-2)Man
# Outline: as §1
# [23] = molecular target: Gal(b1-3)GlcNAc(b1-2)Man(a1-3)[Gal(b1-3)GlcNAc(b1-2)Man(a1-6)]Man(b1-4)GlcNAc(b1-4)GlcNAc
# Outline: as §1
binder,measurement,setting,value
B1,glycan array binding signal (z-score),Gal(a1-3)Gal(b1-3)GlcNAc,-0.183
same,glycan array binding signal (z-score),[1],-0.541
same,glycan array binding signal (z-score),[2],-0.122
same,glycan array binding signal (z-score),[3],-0.008
same,glycan array binding signal (z-score),[4],0.128
same,glycan array binding signal (z-score),[5],0.871
same,glycan array binding signal (z-score),Gal(a1-3)Gal(b1-4)Glc,-0.325
same,glycan array binding signal (z-score),Gal(a1-3)Gal(b1-4)GlcNAc,-0.314
same,glycan array binding signal (z-score),[6],-0.085
same,glycan array binding signal (z-score),[7],0.288
same,glycan array binding signal (z-score),[8],0.654
same,glycan array binding signal (z-score),[9],0.966
same,glycan array binding signal (z-score),[10],-0.615
same,glycan array binding signal (z-score),[11],1.08
same,glycan array binding signal (z-score),Gal(a1-3)GalNAc,-0.395
same,glycan array binding signal (z-score),[12],-0.721
same,glycan array binding signal (z-score),[13],0.737
same,glycan array binding signal (z-score),Gal(a1-4)Gal(b1-4)Glc,0.252
same,glycan array binding signal (z-score),Gal(a1-4)Gal(b1-4)GlcNAc,-1.37
same,glycan array binding signal (z-score),[14],-0.09
same,glycan array binding signal (z-score),[15],0.097
same,glycan array binding signal (z-score),Gal(a1-4)GlcNAc,-1
same,glycan array binding signal (z-score),Gal(a1-6)Glc,-0.016
same,glycan array binding signal (z-score),Gal(b1-2)Gal,-0.065
same,glycan array binding signal (z-score),Gal(b1-3)Gal,-0.786
same,glycan array binding signal (z-score),Gal(b1-3)Gal(b1-4)GlcNAc,-0.059
same,glycan array binding signal (z-score),Gal(b1-3)GalNAc,-0.519
same,glycan array binding signal (z-score),[16],0.848
same,glycan array binding signal (z-score),[17],-0.35
same,glycan array binding signal (z-score),Gal(b1-3)GalNAc(b1-3)Gal,0.05
same,glycan array binding signal (z-score),[18],-0.233
same,glycan array binding signal (z-score),[19],-0.712
same,glycan array binding signal (z-score),[20],-0.475
same,glycan array binding signal (z-score),Gal(b1-3)GlcNAc,-0.99
same,glycan array binding signal (z-score),[21],-0.72
same,glycan array binding signal (z-score),[22],-1.04
same,glycan array binding signal (z-score),Gal(b1-3)GlcNAc(b1-2)Man,-1.75
same,glycan array binding signal (z-score),[23],-0.137

# Quoted at random: two records from the list, in no set order.
binder,measurement,setting,value
B1,glycan array binding signal (z-score),Gal(a1-3)GalNAc,-0.395
same,glycan array binding signal (z-score),[10],-0.615
